{"source": "PubChem BioAssay AID1259405 (NCATS, 2018)", "test": "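Silenced genes that increase secreted GFP made by CHO cells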 (primary screen)", "cell system": "Chinese hamster CHO-K1 ovary cells with stable secreted eGFP expression", "reagent": "single siRNA against mouse genes, 0.8 pmol siRNA per well (2 µl of 400 nM stock)", "duration": "3 days", "read-out": "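Per-well intracellular GFP measured by laser scanning cytometry, plus viability from ATP luminescence, each relative to plate median of non-targeting control wells, in %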", "reading the numbers": "GFP, % of control: higher = more GFP per well, higher productivity; viability (ATP), % of control: higher = more viable cells (more ATP)", "call rule": "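Called active when intracellular GFP, relative to negative control, is at or above 120%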", "note": "The deposit covers about 50,000 reagents; this is a part drawn at random. About 4,000 of all reagents (8%) were called active. 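Mouse siRNA library applied to hamster cells; one well for each siRNA.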 The numbers tell different reagents against one gene apart. Reagent sequences are not shown."}
{"gene":"Xpo5 (exportin 5)","reagent no.":1,"GFP, % of control":84,"viability (ATP), % of control":102,"Outcome":"inactive"}
{"gene":"Xpo5 (exportin 5)","reagent no.":2,"GFP, % of control":140,"viability (ATP), % of control":112,"Outcome":"active"}
{"gene":"Xpo5 (exportin 5)","reagent no.":3,"GFP, % of control":43,"viability (ATP), % of control":60.4,"Outcome":"inactive"}
{"gene":"Fxyd4 (FXYD domain-containing ion transport regulator 4)","reagent no.":1,"GFP, % of control":98.9,"viability (ATP), % of control":79.6,"Outcome":"inactive"}
{"gene":"Fxyd4 (FXYD domain-containing ion transport regulator 4)","reagent no.":2,"GFP, % of control":80.2,"viability (ATP), % of control":75.1,"Outcome":"inactive"}
{"gene":"Fxyd4 (FXYD domain-containing ion transport regulator 4)","reagent no.":3,"GFP, % of control":99.9,"viability (ATP), % of control":88.9,"Outcome":"inactive"}
{"gene":"Tssk4 (testis-specific serine kinase 4)","reagent no.":1,"GFP, % of control":79.9,"viability (ATP), % of control":84.2,"Outcome":"inactive"}
{"gene":"Tdrp (testis development related protein)","reagent no.":1,"GFP, % of control":50.7,"viability (ATP), % of control":86.5,"Outcome":"inactive"}
{"gene":"Tdrp (testis development related protein)","reagent no.":2,"GFP, % of control":82,"viability (ATP), % of control":59.6,"Outcome":"inactive"}
{"gene":"Tdrp (testis development related protein)","reagent no.":3,"GFP, % of control":79.2,"viability (ATP), % of control":100,"Outcome":"inactive"}
{"gene":"Naip2 (NLR family, apoptosis inhibitory protein 2)","reagent no.":1,"GFP, % of control":106,"viability (ATP), % of control":60.2,"Outcome":"inactive"}
{"gene":"Naip2 (NLR family, apoptosis inhibitory protein 2)","reagent no.":2,"GFP, % of control":80.1,"viability (ATP), % of control":83.7,"Outcome":"inactive"}
{"gene":"Naip2 (NLR family, apoptosis inhibitory protein 2)","reagent no.":3,"GFP, % of control":87.6,"viability (ATP), % of control":97.9,"Outcome":"inactive"}
{"gene":"Prmt3 (protein arginine N-methyltransferase 3)","reagent no.":1,"GFP, % of control":81.3,"viability (ATP), % of control":66.7,"Outcome":"inactive"}
{"gene":"Prmt3 (protein arginine N-methyltransferase 3)","reagent no.":2,"GFP, % of control":99.6,"viability (ATP), % of control":111,"Outcome":"inactive"}
{"gene":"Prmt3 (protein arginine N-methyltransferase 3)","reagent no.":3,"GFP, % of control":106,"viability (ATP), % of control":97.2,"Outcome":"inactive"}
{"gene":"Pfkm (phosphofructokinase, muscle)","reagent no.":1,"GFP, % of control":59.5,"viability (ATP), % of control":66.1,"Outcome":"inactive"}
{"gene":"Hdac2 (histone deacetylase 2)","reagent no.":1,"GFP, % of control":70.8,"viability (ATP), % of control":74.8,"Outcome":"inactive"}
{"gene":"Hdac2 (histone deacetylase 2)","reagent no.":2,"GFP, % of control":92.5,"viability (ATP), % of control":108,"Outcome":"inactive"}
{"gene":"Ctnna1 (catenin alpha 1)","reagent no.":1,"GFP, % of control":69.2,"viability (ATP), % of control":76.7,"Outcome":"inactive"}
{"gene":"Ctnna1 (catenin alpha 1)","reagent no.":2,"GFP, % of control":76.8,"viability (ATP), % of control":50.5,"Outcome":"inactive"}
{"gene":"Nab2 (Ngfi-A binding protein 2)","reagent no.":1,"GFP, % of control":65.7,"viability (ATP), % of control":85.2,"Outcome":"inactive"}
{"gene":"Nab2 (Ngfi-A binding protein 2)","reagent no.":2,"GFP, % of control":77.2,"viability (ATP), % of control":94.5,"Outcome":"inactive"}
{"gene":"Nab2 (Ngfi-A binding protein 2)","reagent no.":3,"GFP, % of control":85.1,"viability (ATP), % of control":101,"Outcome":"inactive"}
{"gene":"Pomgnt1","reagent no.":1,"GFP, % of control":133,"viability (ATP), % of control":67.7,"Outcome":"active"}
{"gene":"Pomgnt1","reagent no.":2,"GFP, % of control":93.9,"viability (ATP), % of control":68,"Outcome":"inactive"}
{"gene":"Pomgnt1","reagent no.":3,"GFP, % of control":70.3,"viability (ATP), % of control":51.5,"Outcome":"inactive"}

Sorted by “viability (ATP), % of control” (high to low): 2 of the entries above
{"gene":"Xpo5 (exportin 5)","reagent no.":2,"GFP, % of control":140,"viability (ATP), % of control":112,"Outcome":"active"}
{"gene":"Xpo5 (exportin 5)","reagent no.":1,"GFP, % of control":84,"viability (ATP), % of control":102,"Outcome":"inactive"}
